{"sequences": {"note": "Chains of the proteins cited; added tags and fusions are not shown. Lines headed by an entry give the natural chain unless they say otherwise; changes in a name come on top.", "UniProt P18054": "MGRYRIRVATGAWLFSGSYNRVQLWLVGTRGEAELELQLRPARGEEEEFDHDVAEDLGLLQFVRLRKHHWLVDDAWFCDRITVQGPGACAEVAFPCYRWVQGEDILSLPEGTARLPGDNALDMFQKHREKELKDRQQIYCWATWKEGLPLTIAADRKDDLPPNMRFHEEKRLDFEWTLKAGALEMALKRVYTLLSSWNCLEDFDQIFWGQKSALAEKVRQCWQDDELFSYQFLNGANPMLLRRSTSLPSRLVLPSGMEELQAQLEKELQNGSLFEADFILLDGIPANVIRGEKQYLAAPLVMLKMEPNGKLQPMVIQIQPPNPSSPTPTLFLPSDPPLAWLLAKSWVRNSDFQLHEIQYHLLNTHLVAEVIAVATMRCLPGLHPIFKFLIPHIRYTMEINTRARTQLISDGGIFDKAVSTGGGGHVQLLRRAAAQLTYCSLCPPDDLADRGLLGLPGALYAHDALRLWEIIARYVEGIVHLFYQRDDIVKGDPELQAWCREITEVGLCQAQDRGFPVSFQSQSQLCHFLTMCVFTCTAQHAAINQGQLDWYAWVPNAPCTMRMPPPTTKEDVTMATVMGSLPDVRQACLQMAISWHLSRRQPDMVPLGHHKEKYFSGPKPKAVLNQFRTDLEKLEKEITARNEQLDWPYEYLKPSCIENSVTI"}, "source": "PubChem BioAssay AID1671190", "about": "(National Center for Advancing Translational Sciences (NCATS), 2021)", "note": "About 6,100 (1.1%) of roughly 580,000 compounds were called active. This list was built around the results that the source calls inconclusive (neither active nor inactive); the mix of calls is not that of the screen. Calls come from the whole dose curve; as a rule, active = well fitted inhibition curve with a large enough effect; inconclusive = small, poorly fitted or top-dose-only effect, or another doubt; inactive = no such curve, though single readings can be large or run the other way. A potency beside an inconclusive call is a rough fit, not a confirmed value. % is set by controls: 0 for no effect and ±100 for the full control effect; potency is the fitted concentration of half-maximal effect."}
{"molecular_target": "Polyunsaturated fatty acid lipoxygenase ALOX12 (Homo sapiens) (UniProt P18054)", "test": "Primary qHTS assay for inhibitors of human arachidonate 12S-lipoxygenase (ALOX12): Round 2", "conditions": "purified 12hLO, xylenol orange hydroperoxide absorbance; activity change, negative = inhibition: at 108 µM (top of the series) unless noted", "outline": "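Hydroperoxide product was detected by ferrous iron/xylenol orange as the 573 to 405 nm absorbance ratio. Arachidonic acid at 40 uM (final) was turned over for 30 min at room temperature by 150 nM human 12hLO, pH 7.0 Hepes buffer, after 15 min compound preincubation.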"}
{"smiles": "COc1ccc2[nH]c3c(c2c1)CCNC31CCN(C(=O)c2cnccn2)CC1", "activity change, negative = inhibition": "inactive: 1.16%"}
{"smiles": "Cc1ccc(C(=O)OCC(=O)NC(=O)c2cccn2C)cc1[N+](=O)[O-]", "Potency": "inconclusive: 112 µM [inhibitor, single point]"}
{"smiles": "OCCN(Cc1ccccc1)Cc1ccccc1Cl", "Potency": "inconclusive: 0.794 µM [inhibitor, full curve, poor fit]"}
{"smiles": "CC(=O)Nc1nc2c(C)cc(NS(=O)(=O)Cc3ccccc3)cc2s1", "Potency": "inconclusive: 79.4 µM [inhibitor, partial curve, poor fit]"}
{"smiles": "O=C(COc1ccccc1[N+](=O)[O-])Nc1cccc(S(=O)(=O)NC2=NCCCCC2)c1", "Potency": "inconclusive: 44.7 µM [inhibitor, partial curve, poor fit]"}
{"smiles": "COc1ccc(N(C(=O)C(C)C)S(=O)(=O)c2cccs2)cc1", "activity change, negative = inhibition": "inactive: 15.7%"}
{"smiles": "CC(=O)NCC(=O)N(c1ccccc1)C1(C(=O)NC2CCCCC2)CCCCC1", "Potency": "inconclusive: 63.1 µM [inhibitor, partial curve, poor fit]"}
{"smiles": "CCCNC(=O)N1CCN(C(c2ccccc2)c2ccccc2)CC1", "activity change, negative = inhibition": "inactive: -6.47%"}
{"smiles": "O=C(c1cc2cc(Cl)cc(Cl)c2oc1=O)N1CCN(Cc2ccccc2)CC1", "Potency": "inconclusive: 89.1 µM [inhibitor, single point]"}
{"smiles": "COc1ccc(/C=C2\\C(=O)NC(=S)N2C(=O)c2ccc(F)cc2)cc1", "Potency": "inconclusive: 50.1 µM [inhibitor, partial curve, poor fit]"}
{"smiles": "CCc1c(C(=O)O)csc1C", "activity change, negative = inhibition": "inactive: 4.31%"}
{"smiles": "CC(C)C(C(=O)NCC1CCCO1)N(Cc1cccs1)C(=O)CNS(=O)(=O)c1ccccc1", "note": "(configuration not stated)", "Potency": "inconclusive: 50.1 µM [inhibitor, partial curve, poor fit]"}
{"smiles": "COc1ccc(OC)c(C(=O)NC(CC(N)=O)c2ccc(N3CCN(c4ccc(F)cc4)CC3)c([N+](=O)[O-])c2)c1", "note": "(configuration not stated)", "Potency": "inconclusive: 50.1 µM [inhibitor, partial curve, poor fit]"}
{"smiles": "CCc1ccc(C2Cc3ccccc3N2)cc1", "note": "(configuration not stated)", "Potency": "inconclusive: 1.12 µM [inhibitor, full curve, poor fit]"}
{"smiles": "COC(=O)[C@@H]1Cc2ncn(C)c2CN1S(=O)(=O)Cc1ccccc1", "Potency": "inconclusive: 20 µM [inhibitor, full curve]"}
{"smiles": "O=c1[nH]c(=S)n(-c2cccc(Cl)c2)c(O)c1/C=N/N1CCOCC1", "Potency": "inconclusive: 22.4 µM [inhibitor, partial curve, poor fit]"}
{"smiles": "COc1ccc2c(C)c(CCC(=O)Nc3ccccc3N3CCCC3)c(=O)oc2c1", "Potency": "inconclusive: 141 µM [inhibitor, single point]"}
